In patent US9314029B2, “Control and repellency of mosquitoes” (BEDOUKIAN RESEARCH, INC., priority 2012, dated 2016):

Test system: Aedes aegypti
Assay: Repellency on treated membrane-covered blood-filled wells
Format: in vivo
Conditions: 7% in isopropanol, 20 min
Description: The invention is illustrated by, but not limited to, the following examples. • Five replicates of 250 adult female mosquitoes each were placed in clear plastic cages with access to five warmed, blood-filled, membrane-covered wells. The mosquitoes were Aedes aegypti unless otherwise noted. Membranes were treated with repellent. Five replicates were tested. Each replicate used a fresh batch of mosquitoes, blood and treated membranes. The number of mosquitoes probing each well was recorded at two minute intervals for 20 minutes. The total numbers of probes on each well were tallied at the end of the observation period and the average percentage repellency relative to the control was calculated for each formulation.

CCCCCCCC1CCC(=O)O1 (centres unmarked) [gamma-undecalactone]
Avg # Probes: 0
Avg % Repellency (relative to control): 100%
